Results of single-concentration screens

The chains behind the UniProt entries cited, without tags or fusion partners. Residues count along the entry.
UniProt Q8IDJ8, 1-583: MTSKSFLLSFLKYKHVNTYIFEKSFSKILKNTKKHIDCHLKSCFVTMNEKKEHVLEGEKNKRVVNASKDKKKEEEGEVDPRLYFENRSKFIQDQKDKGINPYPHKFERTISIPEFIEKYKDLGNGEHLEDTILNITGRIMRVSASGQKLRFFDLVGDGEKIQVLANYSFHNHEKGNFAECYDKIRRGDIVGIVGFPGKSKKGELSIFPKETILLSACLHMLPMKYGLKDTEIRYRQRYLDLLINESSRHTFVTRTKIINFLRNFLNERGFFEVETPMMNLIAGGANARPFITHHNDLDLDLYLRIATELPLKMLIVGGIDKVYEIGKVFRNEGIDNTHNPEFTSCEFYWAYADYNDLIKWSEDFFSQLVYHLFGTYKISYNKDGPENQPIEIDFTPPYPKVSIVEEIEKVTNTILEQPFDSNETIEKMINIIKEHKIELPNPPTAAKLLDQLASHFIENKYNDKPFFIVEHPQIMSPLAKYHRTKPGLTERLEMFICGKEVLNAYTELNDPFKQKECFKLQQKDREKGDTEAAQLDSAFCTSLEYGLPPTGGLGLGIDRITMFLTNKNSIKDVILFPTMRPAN
UniProt A4I591, 1-473: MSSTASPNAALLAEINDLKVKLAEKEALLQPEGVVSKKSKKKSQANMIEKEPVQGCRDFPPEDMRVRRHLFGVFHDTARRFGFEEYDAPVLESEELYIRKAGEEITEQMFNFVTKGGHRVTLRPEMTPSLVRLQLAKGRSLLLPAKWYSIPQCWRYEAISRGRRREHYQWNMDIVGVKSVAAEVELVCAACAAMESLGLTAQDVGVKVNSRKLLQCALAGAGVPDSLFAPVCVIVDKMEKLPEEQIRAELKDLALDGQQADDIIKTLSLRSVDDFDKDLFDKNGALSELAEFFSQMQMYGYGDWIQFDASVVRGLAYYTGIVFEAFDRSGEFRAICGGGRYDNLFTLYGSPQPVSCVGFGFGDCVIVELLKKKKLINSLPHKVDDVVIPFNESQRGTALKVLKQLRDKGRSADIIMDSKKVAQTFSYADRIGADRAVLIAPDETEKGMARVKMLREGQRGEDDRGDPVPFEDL
UniProt Q4DA54, 1-478: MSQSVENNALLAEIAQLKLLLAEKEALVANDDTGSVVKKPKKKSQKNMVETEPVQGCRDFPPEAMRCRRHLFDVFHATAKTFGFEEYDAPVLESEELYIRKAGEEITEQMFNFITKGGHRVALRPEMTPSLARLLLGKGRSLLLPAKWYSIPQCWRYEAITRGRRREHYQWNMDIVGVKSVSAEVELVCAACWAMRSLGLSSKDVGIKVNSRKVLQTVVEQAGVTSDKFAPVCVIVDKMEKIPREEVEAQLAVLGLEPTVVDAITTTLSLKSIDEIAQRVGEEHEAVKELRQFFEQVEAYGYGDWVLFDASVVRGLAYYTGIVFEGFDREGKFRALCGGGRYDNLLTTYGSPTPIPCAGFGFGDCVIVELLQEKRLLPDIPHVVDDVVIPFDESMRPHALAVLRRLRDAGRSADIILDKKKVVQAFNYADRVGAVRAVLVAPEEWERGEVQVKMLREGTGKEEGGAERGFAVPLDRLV
UniProt P9WPC5, whole entry: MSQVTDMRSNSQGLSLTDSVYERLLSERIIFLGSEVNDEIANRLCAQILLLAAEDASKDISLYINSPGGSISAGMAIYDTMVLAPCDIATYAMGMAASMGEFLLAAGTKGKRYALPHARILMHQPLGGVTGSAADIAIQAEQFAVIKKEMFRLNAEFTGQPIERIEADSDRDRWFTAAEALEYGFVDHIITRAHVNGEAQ
UniProt P9WPC3, whole entry partner: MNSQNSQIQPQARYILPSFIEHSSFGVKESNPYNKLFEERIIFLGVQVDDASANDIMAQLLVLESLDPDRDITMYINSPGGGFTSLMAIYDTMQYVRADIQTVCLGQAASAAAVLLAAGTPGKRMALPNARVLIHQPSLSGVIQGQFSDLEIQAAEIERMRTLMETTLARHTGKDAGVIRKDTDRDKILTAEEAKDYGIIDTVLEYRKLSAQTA

PfKRS1: 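Lysine-tRNA ligase, Plasmodium falciparum 3D7 (UniProt Q8IDJ8). Enzyme assay of the cytosolic lysyl-tRNA synthetase in 384-well plates, read by luminescence. Concentration: 30 µM. Higher reads as stronger inhibition, judged from the few compounds that gave an IC50. About 69,000 compounds were tested under these conditions; 0.071% (about 49) showed 50% or more at least once.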
LiHisRS: 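Histidine-tRNA ligase, Leishmania infantum (UniProt A4I591). Enzyme assay of histidyl-tRNA synthetase; the read-out is not stated. Compounds at 30 µM. Direction is inferred from retests: higher values go with stronger inhibition. The assay is labelled LdHisRS but filed under L. infantum. Size under these conditions: about 69,000 compounds, about 410 of them at 50% or above in at least one test.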
TcHisRS: 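Enzyme assay of histidyl-tRNA synthetase; the read-out is not stated. Target: Histidine-tRNA ligase, Trypanosoma cruzi CL Brener (UniProt Q4DA54). Compounds at 30 µM. Direction is inferred from retests: higher values go with stronger inhibition. About 69,000 compounds were tested under these conditions; 0.045% (about 31) showed 50% or more at least once.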
Leishmania in macrophages: 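Cell assay of Leishmania donovani living inside macrophages; the read-out is not stated. Concentration: 30 µM. Direction is inferred from retests: higher values go with stronger inhibition. Size under these conditions: about 69,000 compounds, about 1,000 of them at 50% or above in at least one test.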
ClpP1P2: 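ClpP1P2, Mycobacterium tuberculosis (UniProt P9WPC5 and UniProt P9WPC3). Protease assay of ClpP1P2, read by the AMC dye that it sets free. Compounds at 50 µM. Higher reads as stronger inhibition, judged from the few compounds that gave an IC50. Most other retested compounds had strongly negative values. Of about 69,000 compounds tested this way, about 10 (0.015%) reached 50% or more in at least one test.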

Results are given as percent effect. The controls that fix the scale are not given in the record; negative values are as filed. Compounds were drawn at random from those tested, without regard to their results. Two or more numbers in one place are separate tests of the same structure; such repeats can differ widely. A dash means the value is not listed here; it may have been measured.

Compound | PfKRS1 | LiHisRS | TcHisRS | Leishmania in macrophages | ClpP1P2
CC(C)c1sc(Cl)nc1C(=O)N1CCN(c2ccccn2)CC1 | -0.2124% | 30% | -4.969% | 16.74% | 0.7488%
CNC(=O)c1cc2c(nc1N(C)C)CCN(c1ncc(F)cn1)CC2.O=C(O)C(F)(F)F | - | - | - | 23.43% | -
COc1c(NC(=O)N(C)CCOc2ccccc2)c(C)nn1C | 0.8579% | 24.14% | 0.5236% | -2.878% | 19.71%
Cc1nnc(CCNC(=O)c2coc(CN3CCOCC3)c2)s1 | 4.477% | 13.43% | 2.128% | -26.69% | -6.146%
Cc1nnc(N2C[C@H](Oc3ccccn3)[C@H]3OCCC[C@H]32)s1 | 1.362% | 16.22% | 1.493% | - | -0.4508%
CCc1nc(NCC2CCCN(C(=O)C3CC3)C2)c2cnn(C)c2n1 (configuration not stated) | 11.05% | 21.74% | 6.931% | 1.296% | -3.058%
Cc1ccc(-c2csc(N)c2C#N)c(C)c1 | -1.649% | -5.263% | -2.924% | 21.28% | 1.313%
Cc1nc2n(n1)CC(NCc1nc(-c3ccccn3)no1)CC2 (configuration not stated) | -0.1896% | 11.01% | 3.207% | 25.26% | -28.15%
CC(C)c1nc(C(=O)N2CCOCC2CC(=O)c2ccco2)c[nH]1 (configuration not stated) | -2.542% | 0% | 3.261% | 29.87% | -0.3283%
CCNc1cc2c(nn1)CCN(C(=O)c1ccnc(C)n1)C2 | 3.275% | 48.21% | 5.325% | 17.17% | -29.06%
COCCN1CCN(c2cc(OC)ncn2)Cc2ccc(C)nc21 | 3.653% | 7.921% | 5.528% | -15.59% | -7.515%
Cc1nn(C)c(C)c1NC(=O)CN1CCc2c(nc(C3CC3)n2C)C1 | -1.966% | 1.923% | -2.5% | 39.6% | -18.56%
CNc1ncc2c(n1)CN(C1CCCC1)C2=O | 49.41% | 12.07% | 2.609% | -21.11% | 5.855%
COC(=O)CN(C)Cc1cc(Br)cs1 | -3.692% | 9.756% | 6.25% | -8.708% | -15.6%
c1cnc(N2CCCC3(CCN(CC4CCC4)C3)C2)nc1 (configuration not stated) | 1.742% | 26.47% | 14.78% | - | 1.974%
CC1(Cc2ccc3c(c2)OCO3)CCCN(S(=O)(=O)N2CCCC2)C1 (configuration not stated) | 1.695% | 6.838% | 1.622% | 7.906% | -14.15%
CCNc1cc2c(nn1)CCN(C(=O)c1cc3c(s1)CCOC3)C2 | 5.327% | 28.1% | 8.163% | 23.82% | 1.183%
CN(C)Cc1cc(C2CCCCN2S(=O)(=O)c2cccc(Cl)c2)nn1C.Cl (configuration not stated) | - | - | - | 35.65% | -
COC(=O)c1cccn1C1CCN(Cc2cnc3ccccn23)CC1 | -0.402% | 6.838% | 2.564% | 45.07% | -14.43%
CC(C)c1cc(O)nc(C2CCCN2C(=O)C(C)(C)C)n1 (configuration not stated) | -2.604% | 20% | 2.239% | 10.42% & 11.6% | 12.57%
CCc1nnsc1C(=O)N1CCCN(Cc2cnn(CC)c2)CC1 | 8.501% | 4.959% | -1.681% | 23.93% | 1.776%
CC(C)c1nnc(CN2CCCC2C(=O)OCc2ccccc2)o1 (configuration not stated) | 3.45% | 11.67% | 4.902% | 20.91% | 2.706%
O=C(O)C(F)(F)F.O=C(O)C(F)(F)F.[H][C@]12C[C@H](CN(C)C)O[C@@]1([H])CN(Cc1ccco1)C2 | - | - | - | -9.327% | -
CN1C(=O)C2(CCN(CC3CC3)CC2)c2ccccc21 | 2.131% | 12.03% | 7.182% | - | -5.122%
O=C(NCc1nncn1C1CC1)c1ccccc1OCC1CC1 | -0.6038% | 2.073% | -0.5525% | -7.285% | -2.345%
O=C(Cc1cccnc1)N1CCCC(c2cc(C(F)(F)F)[nH]n2)C1 (configuration not stated) | -3.275% | 17.78% | 10.3% | 10.48% | -4.975%
COc1ccc(CC(=O)N2Cc3nccn3CC(CN(C)C)C2)cc1.O=C(O)C(F)(F)F (configuration not stated) | - | - | - | 15.63% | -
Cc1nc(CN(C)C2CCN(Cc3cccc4c3OCCO4)C2)no1 (configuration not stated) | -0.8534% | 13.27% | 5.539% | 6.673% | -56.6%
O=C(O)C(F)(F)F.[H][C@@]12CCN(Cc3ccco3)C[C@@]1([H])[C@H](C(=O)NCC1CC1)CCO2 | - | - | - | -12.19% | -
O=C(NCCc1ccccn1)Nc1cc(C(F)(F)F)c[nH]c1=O | -0.6343% | 3.67% | 2.624% | -2.361% | -15.55%
Oc1cc(CN2CCCCC2c2cccnc2)nc2c(F)cccc12 (configuration not stated) | 5.813% | 21.43% | 7.059% | 14.91% | -4.782%
CC(C)n1c(=O)c2ccccc2n(CCN(C)C)c1=O.Cl | - | - | - | 50.24% | -
Cl.Cn1nc(C2CCN(C(=O)CN3CCCCC3)CC2)c2cccnc21 | - | - | - | 5.846% | -
O=C(C1CCCC1)N1CCC2(CC1)COCCN2CC1CC1 | 2.755% | 26.83% | 3.759% | - | 7.681%
Clc1snnc1CN1CCCCC1Cn1cncn1 (configuration not stated) | 18.48% | -19.1% | 9.023% | 34.17% | 17.01%
Cn1nc(C2CCCN(C(=O)CO)C2)cc1O (configuration not stated) | 4.96% | 8.333% | 2.703% | -18.91% | -2.136%
O=C(NCc1cccnc1)N[C@H]1CC[C@@]2(CCC(=O)N2CC2CC2)CC1 | 0.5971% | 18.92% | 5.525% | - | 14.51%
CCN1CCOCC12CCN(c1cnccn1)CC2.O=C(O)C(F)(F)F | - | - | - | 19.49% | -
CCn1ncnc1C1CC(=O)NCc2nc(N)sc21 (configuration not stated) | 1.054% | 20.48% | 9.453% | -47.28% | 8.413%
Cc1nc(CC(=O)N2CCOC(c3nc(C(C)(C)C)n[nH]3)C2)cs1 (configuration not stated) | 4.9% | 15.07% | 5.911% | 35.64% | -7.772%
O=C1NC2(CCCCC2)c2nnnn2-c2ccc(Br)cc21 | -0.1852% | 15.04% | 3.097% | 11.08% | 0.7701%
O=C(c1cccc(Cl)c1)N1CC[C@H]2[C@H]1CCN2CC1CC1 | 3.016% | 25% | 9.184% | - | 3.518%
O=C(O)C(F)(F)F.O=C(O)C(F)(F)F.O=C(O)C(F)(F)F.[H][C@@]12C[C@@H](Oc3cccnc3)CN1CCN(Cc1cccc(C)n1)C2 | - | - | - | 9.97% | -
O=C(Cc1ccc2c(c1)CCO2)N1CCN(c2ccncc2)CC1 | -0.1582% | 9.091% | 5.848% | -29.56% | -6.424%
COCCC(=O)NC1CCN(CC2(c3cccc(F)c3)CCCC2)CC1 | 1.641% | 7.586% | 3.802% | - | -16.7%
[H][C@]12CCC[C@@]1(COCC1CCOCC1)CN(C(=O)c1ccnnc1)C2 | - | - | - | 6.119% | -
Cc1nn(C)c(N(C)C)c1CNCCOc1ccc2c(c1)OCO2.Cl | - | - | - | 13.34% | -
O=C(C1CCCC1)N1CC[C@]2(O)CCN(Cc3ncccn3)C[C@@H]2C1 | 1.601% | 17.14% | 5.102% | - | -3.779%

Source: ChEMBL document CHEMBL3988442, “University of Dundee, Small-Polar-MMV Screening Library” (2021).